According to US20040014072A1, “Novel dna synthase” (published 2004):
No constants are given. Whether binding was seen depends on the method and setting. Binding seen in cells or lysates may run through a third protein. Some entries that bind do so weakly or less than the wild type. Sequences can lack the tags named with a protein.

What was measured:
[1] = molecular target: T1, p41 (Pyrococcus furiosus protein with DNA primase and DNA polymerase activity), produced with a six-histidine tag at the N-terminus (Pyrococcus furiosus) (UniProt Q9P9H1); experiment: co-elution from cation exchange column chromatography, gel of fractions (FIG. 4)
T1 sequence: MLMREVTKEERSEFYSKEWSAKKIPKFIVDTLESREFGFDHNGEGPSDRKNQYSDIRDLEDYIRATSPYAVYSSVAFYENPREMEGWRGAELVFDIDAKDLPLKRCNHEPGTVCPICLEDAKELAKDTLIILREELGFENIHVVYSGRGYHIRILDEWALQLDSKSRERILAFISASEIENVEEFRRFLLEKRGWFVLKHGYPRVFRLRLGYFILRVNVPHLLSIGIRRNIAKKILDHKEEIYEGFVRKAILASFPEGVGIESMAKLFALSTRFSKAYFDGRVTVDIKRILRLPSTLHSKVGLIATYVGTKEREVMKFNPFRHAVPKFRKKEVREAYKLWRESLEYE

[2] = molecular target: T1, p41 (Pyrococcus furiosus protein with DNA primase and DNA polymerase activity), produced with a six-histidine tag at the N-terminus (Pyrococcus furiosus); experiment: co-elution from cation-exchange column (HiTrap SP); p46 alone passes through, p41 alone is retained

binding [1]: binds | binding [2]: binds
B1: p46 (Pyrococcus furiosus protein that forms a complex with p41) (protein)
chain: MLDPFSEKAKELLKEFGSMNEFLQAIPSLVDIEEVMNRLKFAKESEISEDILNIEDIRDLASFYAQIGALAYSPYGLELELVKKANLRIYTERIRRRRKIRSDEIGIEVKIAVEFPENDIKTLEKVYGGLPEYIVSLREFLDLVPDEKLSSYYVYDGNVYLRKDDLLKVWSKAFERNVEKAVNIIYEIRDELPEFYRRLAGEIRSFAEKEFSDKFREVQAGELKHHLFPPCVKNALRGVPQGMRNYAITVLLTSFLSYARICPNPPRRNVKIRDCIKDMRVITEEILPIIIEAGNRCSPPLFEDQPNEIKNIWYHLGFGYTANPTLEDSGNSTWYFPPNCDKIKANAPQLCTPDKHCRYIRNPLTYYLRRLYLEEKRRAKHADEGSDKGGKERILQ
